# PMC3985639, “A widespread bacteriophage abortive infection system functions through a Type IV toxin–antitoxin mechanism” (Nucleic Acids Research, 2014)
# Results are given in words; binding and its absence hold for the method and conditions named. In cells and extracts the contact can be indirect. Some results given as binding are weak or reduced against the parent protein; the word gives no strength.
# B1: Cas6f (previously Csy4) from Pectobacterium atrosepticum (protein, UniProt Q6D0W5 1-184)
# chain: MDHYIDIRVQPDPEFTASQLLNALFAKLHRVLGQLANGKIGISFPEVGKTLGECLRLHGTEDALSTLEKTSWLKGLRDYTQVSECKVVPNGVKFRTVRRVQLKSSAERLRRRSVSKGWLTAAEAAARIPDAVEKRSALPFVQIKSLSNGQMFFVFVEHGPLQNAPTAGRFSSYGLSTEATVPWF
# Molecular target: Cas6f (previously Csy4) from Pectobacterium atrosepticum (P. atrosepticum) (UniProt Q6D0W5)
# Test: co-IP; both proteins co-expressed in E. coli; soluble fraction on anti-FLAG agarose overnight at 4°C; washed five times with 0.05 M Tris-HCl pH 7.4, 0.3 M NaCl; eluted with FLAG peptide; western blot for FLAG and His6; FLAG-tagged protein as bait, His6-tagged protein as prey
binder,measurement,value
B1,binding,binds
